# Earlier results as cited in patent US5424329A, “Indole-2-carboxamides as inhibitors of cell adhesion” (Warner-Lambert Company, priority 1993, dated 1995).
# Experiments:
# [1] = test system: TPA-mediated CD4 down regulation in HIV-infected cells; conditions: Hamamoto et al. 1989; cited from earlier work
# [2] = test system: TPA-mediated HIV expression in HIV-infected cells; conditions: Hamamoto et al. 1989; cited from earlier work
compound,measurement,setting,value
CN[C@@H]1C[C@H]2O[C@@](C)([C@@H]1OC)n1c3ccccc3c3c4c(c5c6ccccc6n2c5c31)C(=O)NC4 [Staurosporine],inhibition of TPA-mediated CD4 down regulation,[1],effective TPA inhibitor
same,inhibition of TPA-mediated augmentation of HIV expression,[2],effective TPA inhibitor
